Library screen at single concentrations

Protein sequences, listed by entry. Tags and fused reporters are not part of them.
UniProt I6X8D2, whole entry: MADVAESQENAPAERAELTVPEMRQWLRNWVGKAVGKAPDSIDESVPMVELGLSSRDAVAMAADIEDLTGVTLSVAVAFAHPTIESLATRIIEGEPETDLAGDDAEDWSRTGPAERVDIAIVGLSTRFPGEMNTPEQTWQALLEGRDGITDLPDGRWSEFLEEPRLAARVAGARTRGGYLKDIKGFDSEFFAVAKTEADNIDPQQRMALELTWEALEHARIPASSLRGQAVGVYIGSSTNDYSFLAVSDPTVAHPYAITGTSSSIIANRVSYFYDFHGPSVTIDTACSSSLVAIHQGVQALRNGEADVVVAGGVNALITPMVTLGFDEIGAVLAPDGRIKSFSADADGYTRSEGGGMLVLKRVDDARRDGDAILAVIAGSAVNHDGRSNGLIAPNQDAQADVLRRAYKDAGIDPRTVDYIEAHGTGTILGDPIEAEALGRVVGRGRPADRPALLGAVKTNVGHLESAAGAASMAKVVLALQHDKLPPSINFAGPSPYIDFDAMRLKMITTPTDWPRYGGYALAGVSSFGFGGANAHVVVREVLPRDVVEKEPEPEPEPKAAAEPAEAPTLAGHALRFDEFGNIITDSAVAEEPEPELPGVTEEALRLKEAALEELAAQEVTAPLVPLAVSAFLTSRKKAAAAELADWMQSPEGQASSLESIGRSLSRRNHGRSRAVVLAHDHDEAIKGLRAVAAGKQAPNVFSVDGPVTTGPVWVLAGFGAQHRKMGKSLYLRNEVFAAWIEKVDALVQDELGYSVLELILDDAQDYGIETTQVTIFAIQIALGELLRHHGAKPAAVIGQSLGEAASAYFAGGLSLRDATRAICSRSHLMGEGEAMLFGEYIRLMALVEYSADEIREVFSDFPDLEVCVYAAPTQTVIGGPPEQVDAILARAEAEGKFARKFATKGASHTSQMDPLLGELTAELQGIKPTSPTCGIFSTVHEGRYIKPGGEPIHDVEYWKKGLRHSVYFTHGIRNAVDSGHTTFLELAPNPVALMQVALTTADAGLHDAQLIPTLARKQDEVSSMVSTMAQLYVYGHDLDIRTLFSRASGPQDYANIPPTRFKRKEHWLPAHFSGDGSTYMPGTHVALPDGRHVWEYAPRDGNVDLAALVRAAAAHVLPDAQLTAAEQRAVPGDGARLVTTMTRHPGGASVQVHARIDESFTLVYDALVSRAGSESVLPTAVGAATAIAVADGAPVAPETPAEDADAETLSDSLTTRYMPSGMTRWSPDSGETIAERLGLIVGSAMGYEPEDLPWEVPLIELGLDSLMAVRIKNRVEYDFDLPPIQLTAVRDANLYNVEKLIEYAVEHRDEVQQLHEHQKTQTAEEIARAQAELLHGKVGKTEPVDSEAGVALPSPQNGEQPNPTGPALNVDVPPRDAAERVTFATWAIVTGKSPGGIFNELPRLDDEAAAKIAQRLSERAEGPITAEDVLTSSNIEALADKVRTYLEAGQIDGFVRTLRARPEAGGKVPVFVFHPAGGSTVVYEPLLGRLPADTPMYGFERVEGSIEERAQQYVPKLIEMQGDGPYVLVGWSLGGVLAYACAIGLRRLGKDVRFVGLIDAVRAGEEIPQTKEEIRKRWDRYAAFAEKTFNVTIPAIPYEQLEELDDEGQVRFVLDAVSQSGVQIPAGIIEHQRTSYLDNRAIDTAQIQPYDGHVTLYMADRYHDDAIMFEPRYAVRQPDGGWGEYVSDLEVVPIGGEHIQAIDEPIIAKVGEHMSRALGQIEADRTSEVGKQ

From ChEMBL document CHEMBL3988442, “University of Dundee, Small-Polar-MMV Screening Library” (2021).

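Enzyme assay of the thioesterase domain of polyketide synthase 13; the read-out is not stated. Target: Polyketide synthase Pks13, Mycobacterium tuberculosis (UniProt I6X8D2). Compounds at 30 µM. Higher reads as stronger inhibition (inferred from which compounds were picked for retests). Of about 67,000 compounds tested this way, about 300 (0.46%) reached 50% or more in at least one test.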

Values are the deposited “Percent Effect”, in %. The controls that fix the scale are not given in the record; negative values are as filed. The compounds are a random part of those screened.

SMILES,percent effect
CC(NC(=O)CNc1cc2c(cc1Cl)NC(=O)CO2)c1ccco1 (configuration not stated),9.186%
O=C(Cc1ccc(O)cc1)N1CCCC(O)(CN2CCOCC2)CC1 (configuration not stated),0.09481%
O=C(NCCO)C1(CC2CC(c3ccc(F)cc3)=NO2)CCOCC1 (configuration not stated),8.157%
CCNc1ncc(C(=O)NC2CCOCC2)cn1,-15.36%
CN1CCCC(c2ccnc(C(=O)NC3CC3)c2)C1 (configuration not stated),-5.408%
CS(=O)(=O)N[C@H]1CCO[C@]2(CCN(C(=O)c3ccccn3)C2)C1,0.9365%
CC(C)(C)NC(=O)Cn1cc(C(N)=O)c(-c2ccccc2)n1,-32.05%
Cc1noc(C(C)SCc2ccccn2)n1 (configuration not stated),-39.72%
Cc1cc(NCCO)nc2[nH]nc(N)c12,-36.94%
CC(C)c1cnc(N2C[C@H](CO)C[C@H](CN3CCOCC3)C2)nc1,-12.46%
Cc1nc(-c2cccc(C(=O)O)c2)c[nH]1,-12.4%
Cc1csc(NC(=O)C2CSCCC(=O)N2)n1 (configuration not stated),-28.24%
O=S(=O)(C1CC1)N1CCO[C@H]2[C@@H](Oc3cccnc3)CC[C@@H]21,12.34%
CCN1CCN(C(=O)c2cc(-c3cccs3)cs2)CC1,-5.001%
CCc1noc(C)c1C(=O)N1CCN(c2nc(C)cc(OC)n2)CC1,1.707%
O=C(CCNS(=O)(=O)c1ccc(Cl)cc1)NCc1ccoc1,6.284%
COc1ccc(Cl)cc1NC(=O)N1CCc2nc(NC(C)=O)sc2C1,-10.39%
CC(=O)Nc1ncc(S(=O)(=O)Nc2ccc(F)cc2)s1,-17.87%
CCCN(CCn1c(=O)oc2ccccc21)CC1CC1,-5.278%
COCC1CC2(CCN(CC3CC3)CC2)CN1Cc1ccccn1 (configuration not stated),-8.25%
NC(=O)CN1CCC(C(=O)NCCn2cc(Cl)cn2)CC1,6.063%
CCn1cc(S(=O)(=O)NC(CO)Cc2ccccc2)cn1 (configuration not stated),-38.09%
Cn1cnc(CN2Cc3nccn3CC2c2ccccc2)c1 (configuration not stated),16.94%
CC(C)CN1CCO[C@H]2CCN(c3cnccn3)CC[C@@H]21,11.48%
CC(C)CCn1ccc(NC(=O)N2CCCC2CN2CCOCC2)n1 (configuration not stated),-26.42%
Cc1nc(CN(C)Cc2csc(-c3cccs3)n2)co1,-14.38%
Cc1ccccc1CCC(=O)N1CCCC(c2cc(C(N)=O)[nH]n2)C1 (configuration not stated),-16.19%
CC(C)N1CCO[C@H]2CN(C(=O)c3ccc(N(C)C)cc3)C[C@H]21,-10.4%
O=C1N(CCCc2ccccc2)CCCC12CCN(C(CO)CO)C2 (configuration not stated),-33.18%
CC(=O)c1ccc(NC(=O)C(C)Cn2cc(Br)cn2)cc1 (configuration not stated),-16.7%
Cc1nc(N2CCCC2)nc2c1CCN(C(=O)CC1CCCC1)CC2,4.461%
O=C(NCCc1ccccc1)N1C[C@H]2C[C@H](C(=O)N3CCCC3)[C@@H](C1)O2,-28.28%
FC(F)(F)Oc1ccc(-c2c[nH]c([C@@H]3COCCN3)n2)cc1,-38.47%
O=C(NC1CC1)c1cc(C(F)(F)F)cc(C(=O)NC2CC2)n1,-14.38%
CCNc1ncc(CN(CCN(C)C)Cc2ccc(C)s2)cn1,-34.19%
CCS(=O)(=O)NCc1nc(C)cc(N2CCCC2)n1,-13.35%
CCc1nnc(CN(C)CC2CCCCC2)o1,1.323%
CN(C)CC1(O)CCCN(c2nc(-c3ccccc3)no2)CC1 (configuration not stated),-23.39%
O=C(N[C@H]1CN(C2CCOCC2)C[C@@H]1C1CC1)c1cc(O)no1,-21.6%
NC(c1ccc(Cl)cc1)c1cccs1 (configuration not stated),-47.08%
Cn1ccc(CN2CCC3(CC2)CC(Nc2ccccn2)CO3)n1 (configuration not stated),-24.98%
CCOc1ccc(CC(CNC(=O)c2ccc(C)o2)C(N)=O)cc1 (configuration not stated),-21.97%
CC(C)[C@@H]1CN(C(=O)CN(C)Cc2ccccc2)C[C@H]1C(=O)O,6.141%
Cc1sc2nc(CCN)nc(N3CCN(S(C)(=O)=O)CC3)c2c1C,-23.95%
Cc1nc(CNC(=O)NC2CC(C)(C)OC2(C)C)sc1C (configuration not stated),-15.88%
CCN1CCCN(C(=O)c2ccc(NC(=O)CC(C)C)c(C)c2)CC1,-1.64%
Cc1ccc2cc(C(=O)N3CCN(S(C)(=O)=O)CC3)[nH]c2c1,3.574%
CC(=O)NC1CCN(c2nc(N(C)C)nc3c2CCCC3)CC1,16.27%
CCc1noc(CN(CC)Cc2cc3ccc(F)cc3[nH]c2=O)n1,-18.41%
Cc1c(Br)cnn1C(C)C(=O)Nc1nncs1 (configuration not stated),-21.07%
Cc1nc(CN2CCC3(CCN(Cc4nccn4C)CC3)C2=O)cs1,-16.82%
Cc1cnc(N2CCN(C(C)C(N)=O)CC2)nc1 (configuration not stated),-16.03%
Cn1nccc1-c1cncc(C2CCCN(S(C)(=O)=O)C2)n1 (configuration not stated),1.746%
CN(C)C(=O)Cc1ccccc1NCc1noc(-c2ccccc2)n1,-9.129%
O=C(Cn1cc(C2CC2)nn1)N(Cc1cccs1)CC1CCCO1 (configuration not stated),0.207%
CC(=O)Nc1nc(C)c(S(=O)(=O)NCCc2ccccn2)s1,-3.15%
Cc1ccc(C)c2c(C)c(C(=O)NCC[S+](C)[O-])[nH]c12 (configuration not stated),7.739%
Cc1ccc2oc(C(=O)N3CCCC(c4noc(C)n4)C3)cc2n1 (configuration not stated),-5.51%
COc1c(C2CCCN2CC(=O)Nc2ccncc2)c(C)nn1C (configuration not stated),-4.398%
CC(OCC(F)(F)F)C(=O)N1CCCC1 (configuration not stated),-7.304%
Cc1noc(-c2cccnc2N2CCN(c3cnn(C)c3)CC2)n1,-12.98%
Cc1nnc(N2CCN(C)C3(CCC(=O)N(CCO)CC3)C2)s1 (configuration not stated),-10.63%
COCCN1CCC2(C1)c1ccccc1S(=O)(=O)N2C (configuration not stated),-1.079%
CN(C)C(=O)[C@H]1C[C@@H]2CN(c3ncccn3)C[C@H]1O2,-24.23%
c1cc(CCNc2ncc(-c3cnccn3)c(C3CC3)n2)ccn1,-4.876%
N#Cc1cccc(S(=O)(=O)NC(=O)COc2ccc3c(c2)CCC3)c1,-11.48%
Cc1ccc(C(=O)NCC(c2cnn(C)c2)N(C)C)c(O)c1 (configuration not stated),-9.95%

For reference, 7 entries once more:

| SMILES | percent effect |
|---|---|
| `CC(C)CN1CCO[C@H]2CCN(c3cnccn3)CC[C@@H]21` | 11.48% |
| `Cc1ccc2cc(C(=O)N3CCN(S(C)(=O)=O)CC3)[nH]c2c1` | 3.574% |
| `COCCN1CCC2(C1)c1ccccc1S(=O)(=O)N2C` (configuration not stated) | -1.079% |
| `CN(C)CC1(O)CCCN(c2nc(-c3ccccc3)no2)CC1` (configuration not stated) | -23.39% |
| `c1cc(CCNc2ncc(-c3cnccn3)c(C3CC3)n2)ccn1` | -4.876% |
| `CC(C)c1cnc(N2C[C@H](CO)C[C@H](CN3CCOCC3)C2)nc1` | -12.46% |
| `Cc1nnc(N2CCN(C)C3(CCC(=O)N(CCO)CC3)C2)s1` (configuration not stated) | -10.63% |